Molecules are shown by their SMILES. In all, about 1,500 compounds went through this assay and about 1,400 (93%) were called active. No rule for the calls is given here. So high a share suggests a set chosen from earlier hits. The list shows a part of the results, in another mix than the full data. Results with a measured potency or affinity are listed apart.

This test in a line: viability of PTEN-deleted HCT116 cells – cell-based, HCT116 PTEN knockout, dose response (AID 1047). The conditions noted are these: CellTiter-Glo, 60 h; at 30 µM (top of the series).
For `CC(C)N1C(=O)/C(=C/C=C/c2ccco2)C(=O)N(Cc2ccco2)C1=O`, the viability was inactive: 77.2%.

For the origin of these results see PubChem BioAssay AID1047 (SRMLSC, 2008).
